Experimental data from publication PMC9576935.
The exact form of at least one protein or probe is not confirmed. A weaker result is weaker than the reference pair of the same experiment.

Protein sequences, listed by entry. Tags and fused reporters are not part of them. Lines headed by an entry give the natural chain unless they say otherwise; changes in a name come on top.
UniProt P16220: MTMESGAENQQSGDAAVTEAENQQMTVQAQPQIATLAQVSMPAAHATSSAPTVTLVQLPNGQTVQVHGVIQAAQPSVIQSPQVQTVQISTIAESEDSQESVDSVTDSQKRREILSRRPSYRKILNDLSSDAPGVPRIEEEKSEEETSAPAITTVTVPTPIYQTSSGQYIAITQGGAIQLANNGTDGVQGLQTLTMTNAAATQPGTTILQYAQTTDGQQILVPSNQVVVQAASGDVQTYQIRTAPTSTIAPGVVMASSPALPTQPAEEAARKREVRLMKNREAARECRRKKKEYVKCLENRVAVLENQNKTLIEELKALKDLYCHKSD

Molecular target: CREB1 (recombinant, Ni-affinity purified) (UniProt P16220)
Test: EMSA
Conditions: LightShift EMSA kit: 2 ul 5x binding buffer, 6 ul CREB1, 1 ul probe, 25 C, 20 min; salt and pH not stated; recombinant protein

## TGGATGTCTTTCTCAGCATGAAATTAAA (double strand) [MITF-mut probe]
  binding result: binds more weakly
